# Reference: PubChem BioAssay AID493014 (National Center for Advancing Translational Sciences (NCATS), 2011)
# The other results are listed elsewhere or left out. The main result of the screen is listed elsewhere. These columns were measured beside it and carry no call. Compounds called inactive in the main read-out are mostly missing here. The note in brackets gives the kind of curve behind each potency; many fits are weak.
# Test: qHTS Assay to Find Inhibitors of Chronic Active B-Cell Receptor Signaling
# Conditions: ABC-DLBCL IkBa-CBG/CBR reporter, luminescence ratio (green luciferase fused to IkBa over red control in TMD8 lymphoma cells), 4 h
# Summary of the method: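 Compounds up to 46 uM were incubated four hours with TMD8 cells whose green CBG68 luciferase is fused to IkappaBalpha; red CBR luminescence normalised the signal, and concentration-effect curves were fitted to fusion, red and ratio data.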
# [1] = measured here: CBR red luminescence, cell number
Structure (SMILES),AC50 [1],AC50 (measured here: IkBa-CBG green luminescence)
COc1ccccc1CNC(=O)c1cc(=O)c2ccccc2o1,"35.5 µM [falling, single point]",–
O=C(CSc1nc2c(c(=O)[nH]1)CCC2)Nc1ccccc1Cl,"6.31 µM [falling, single point]",–
O=[N+]([O-])c1c(NCc2ccccc2)cc(N2CCc3ccccc3C2)c2nonc12,"0.058 µM [rising, full curve, poor fit]",–
Cc1ccc(NC(=O)CSc2nnc(CNC(=O)c3ccco3)n2C)cc1,"0.231 µM [rising, full curve, poor fit]",–
O=C(CCC(=O)Nc1ccc(Cl)cc1)N/N=C/c1ccc2c(c1)OCO2,"20 µM [falling, partial curve, poor fit]",–
Cc1ccc(CCNC(=O)CCc2nc3ccccc3[nH]2)cc1,"4.11 µM [rising, full curve]",–
Cc1c(C)c2ccc(OCC(=O)NCCN3CCOCC3)c(C)c2oc1=O,"7.08 µM [rising, partial curve, poor fit]",–
Cc1ccc(C(=O)c2sc3nsc(C)c3c2N)cc1,"0.517 µM [rising, partial curve, poor fit]",–
CCc1ccc(NC(=O)CCNS(=O)(=O)c2cccc3nonc23)cc1,"25.9 µM [rising, partial curve, poor fit]",–
Cc1nc2sc3c(c2c(=O)o1)CC(C)(C)OC3,"0.0731 µM [rising, full curve, poor fit]",–
COc1ccc(C(=S)NC2CCCCC2)cc1,"7.94 µM [rising, partial curve, poor fit]",–
N=C1/C(=C/c2ccc(OCc3ccccc3F)cc2)C(=O)N=C2SC(CC(=O)N3CCOCC3)=NN12,"35.5 µM [rising, single point]",–
CCOC(=S)SCC(=O)Nc1nccs1,"7.94 µM [falling, partial curve]",–
O=C(CN1c2cccc3cccc(c23)S1(=O)=O)Nc1ccccc1,"1.26 µM [rising, full curve, poor fit]",–
Cc1c[nH]c2cccc(OCC(O)CNC(C)(C)C)c12 (stereo unspecified),"29.1 µM [rising, single point]",–
CCOc1cc(CNn2cnnc2)cc(Cl)c1OCC(=O)NC(C)(C)C,"6.31 µM [falling, single point]",–
CC(Cc1cccs1)NC(=O)Nc1ccc(Cl)cc1 (stereo unspecified),"1.03 µM [rising, partial curve, poor fit]",–
O=C(N/N=C/c1ccc(Cl)c([N+](=O)[O-])c1)c1cc(-c2ccc3c4c(cccc24)CC3)n[nH]1,"31.6 µM [rising, single point]",–
CC(C)NC(C(=O)Nc1cc(Cl)cc(Cl)c1)c1ccccc1 (stereo unspecified),"20.6 µM [falling, single point]",–
CCCn1c(N)c(C(=O)CSc2ncc(C(F)(F)F)cc2Cl)c(=O)[nH]c1=O,"35.5 µM [rising, single point]",–
C=C(C)C1CC=C(C)/C(=N\NC(=O)CCc2ccccc2)C1 (stereo unspecified),"3.66 µM [rising, partial curve, poor fit]",–
COC(=O)c1cc(OC)c(OC)cc1NC(=S)Nc1cccc(C(C)=O)c1,"6.51 µM [rising, full curve]",–

Structure (SMILES),AC50 [1],AC50 (measured here: IkBa-CBG green luminescence)
CC(=O)c1ccc(S(=O)(=O)N2CCCCC2C(=O)O)cc1 (stereo unspecified),"12.6 µM [falling, partial curve, poor fit]",–
Cc1ccc(N=Nc2c(O)n(CN3CCOCC3)c3ccccc23)cc1,"15.8 µM [falling, single point]",–
COc1ccc(C2NC(=O)NC(C)=C2C(=O)OCC2CCCCC2)cc1OC (stereo unspecified),"20 µM [falling, single point]",–
O=C(Nc1cnc2sc3c(n2c1=O)CCCC3)c1ccc(F)cc1,"10 µM [rising, partial curve, poor fit]",–
COc1ccc(-c2c(=O)n(OC)c3ccccc3[n+]2[O-])cc1OC,"3.98 µM [rising, partial curve, poor fit]",–
Cc1cccc(C)c1NC(=O)C1NC(=O)CC1c1ccccc1 (stereo unspecified),"4.11 µM [rising, full curve, poor fit]",–
COc1ccc(-n2nc(C(=O)NCC(=O)Nc3ccc(F)cc3)c3ccccc3c2=O)cc1,"11.2 µM [falling, partial curve]",–
C#Cc1ccc(CN2CCN(Cc3ccsc3)C(CCO)C2)cc1 (stereo unspecified),"1.41 µM [rising, full curve, poor fit]",–
COc1ccc(Oc2ncccc2[N+](=O)[O-])cc1,"35.5 µM [rising, single point]",–
C=CC[C@@H](CC(=O)N[C@@H](CO)Cc1ccccc1)C(=O)N[C@@H](COC(=O)[C@H](CC=C)CC(=O)OC(C)(C)C)Cc1c[nH]c2ccccc12,"29.1 µM [falling, single point]",–
CCOC(=O)C1=NN(C(=O)c2ccccc2)C(O)(c2ccc(C)cc2)C1 (stereo unspecified),"9.2 µM [falling, single point]",–
O=C(/C=C/NNC(=O)c1ccc(Cl)cc1)c1ccccc1,"7.08 µM [falling, partial curve]",–
Cc1ccc(N2CN=c3s/c(=C\c4cccnc4)c(=O)n3C2)cc1,"17.8 µM [falling, single point]",–
CCC(=O)Nc1ccc(C(=O)Nc2cccc(C)n2)cc1,"14.1 µM [falling, single point]",–
O=C(Nc1ccccc1N1CCOCC1)c1ccccc1NS(=O)(=O)c1ccc(F)cc1,"7.31 µM [rising, partial curve]",–
Cc1ccc(S(=O)(=O)N[C@@H](Cc2ccccc2)C(=O)CCl)cc1,"2.24 µM [falling, full curve]",–
O=C1c2ccccc2NC(c2ccc(-c3cccc(Cl)c3)o2)N1O (stereo unspecified),"29.1 µM [falling, single point]",–
CC(C)c1nc(SCC(=O)Nc2nccs2)c2ccccc2n1,"1 µM [falling, full curve]",–
N#C/C=C(/N)N1CCN(c2ccc(Cl)c(Cl)c2)CC1,"7.31 µM [rising, single point]",–
Cc1nc(N)sc1C(=O)N/N=C/c1ccco1,"8.91 µM [falling, partial curve]","14.1 µM [rising, partial curve, poor fit]"
COc1ccccc1N=C1SC(C(=O)Nc2cccc(Cl)c2Cl)C(N)=C1C(N)=O (stereo unspecified),"35.5 µM [falling, single point]",–
Cc1ccc(/C=N/NC(=S)NCCc2ccccc2)s1,"0.562 µM [rising, full curve]",–

Structure (SMILES),AC50 [1],AC50 (measured here: IkBa-CBG green luminescence)
O=C(CN1CCCCCC1)Nc1ccc(Cl)cn1,"35.5 µM [falling, single point]",–
CCOC(=O)c1c(S(=O)(=O)N2CCCC(C(=O)Nc3ncccc3C)C2)c(C)n(C)c1C (stereo unspecified),"35.5 µM [falling, single point]",–
CCCCCc1nnc(N)s1,"29.1 µM [rising, single point]",–
COC1=C(OC)c2ccccc2C(C(=O)O)N/C1=C(/C)Nc1ccncc1 (stereo unspecified),"8.91 µM [falling, partial curve]",–
CCCn1c(SCC(=O)Nc2ccccc2Cl)n[nH]c1=O,"0.891 µM [rising, full curve, poor fit]",–
O=C(Nc1cccnc1)C1CC(=O)N(c2ccc(F)cc2)C1 (stereo unspecified),"0.112 µM [falling, full curve, poor fit]",–
Cc1nn(-c2ccc(F)cc2)c(Cl)c1/C=C(\CC(=O)O)c1nc2ccccc2s1,"20 µM [rising, single point]",–
O=C(COC(=O)C1CCN(c2ccc(C(F)(F)F)cn2)CC1)Nc1cc(F)ccc1F,"29.1 µM [rising, single point]",–
CCOC(=O)C1CCN(S(=O)(=O)NC[C@H]2O[C@@H](n3cnc4c(N)ncnc43)[C@H](O)[C@@H]2O)C1 (stereo partly specified),"14.6 µM [rising, partial curve]",–
Cc1ccc(-n2ncc3c(N(CCO)Cc4ccccc4)ncnc32)cc1,"0.282 µM [rising, full curve, poor fit]",–
O=C(N/N=C1\CCCc2ccccc21)c1ccccc1Cl,"35.5 µM [falling, single point]",–
CCCOc1cccc(C(=O)Nc2nnn(CCC)n2)c1,"7.08 µM [falling, partial curve]",–
CCOC(=O)c1c(/N=C/c2ccc(C)cc2O)sc2c1CCN(C)C2,"17.8 µM [rising, partial curve, poor fit]",–
Cc1ccc(C(=O)c2cn(-c3ccc(F)c(Cl)c3)nn2)cc1,"2.24 µM [rising, full curve, poor fit]",–
COc1ccc(NC(=O)N(C)C[C@H]2Oc3c(NC(=O)c4ccncc4)cccc3C(=O)N([C@H](C)CO)C[C@@H]2C)cc1,"23.1 µM [rising, single point]",–
COC(=O)[C@@H]1Cc2c([nH]c3ccccc23)C(C)(C)N1C(=O)CCl,"7.08 µM [falling, partial curve, poor fit]",–
O=C(NC1CCCN(Cc2ccc(Cl)cc2)C1)c1ccnc(Cl)c1 (stereo unspecified),"25.1 µM [falling, single point]",–
Cc1ccc(C)c(S(=O)(=O)/N=C2\C=C(NS(=O)(=O)c3ccccc3)C(=O)c3ccccc32)c1,"17.8 µM [falling, single point]",–
CCOC(=O)c1csc(NC(=O)c2cc3ccccc3o2)n1,"12.6 µM [falling, partial curve]",–
COc1ccc(Cc2nc3ccc(C(=O)N4CCC(N(C)C)C4)cc3o2)cc1 (stereo unspecified),"35.5 µM [rising, single point]",–
O=C(O)c1ccccc1SC1CC(=O)N(C2CCCCC2)C1=O (stereo unspecified),"29.1 µM [falling, single point]",–

# Ordered by formula weight (falling): part of the list above
Structure (SMILES),AC50 [1],AC50 (measured here: IkBa-CBG green luminescence)
COc1ccc(NC(=O)N(C)C[C@H]2Oc3c(NC(=O)c4ccncc4)cccc3C(=O)N([C@H](C)CO)C[C@@H]2C)cc1,"23.1 µM [rising, single point]",–
Cc1ccc(C)c(S(=O)(=O)/N=C2\C=C(NS(=O)(=O)c3ccccc3)C(=O)c3ccccc32)c1,"17.8 µM [falling, single point]",–
CCOC(=O)C1CCN(S(=O)(=O)NC[C@H]2O[C@@H](n3cnc4c(N)ncnc43)[C@H](O)[C@@H]2O)C1 (stereo partly specified),"14.6 µM [rising, partial curve]",–
CCOC(=O)c1c(S(=O)(=O)N2CCCC(C(=O)Nc3ncccc3C)C2)c(C)n(C)c1C (stereo unspecified),"35.5 µM [falling, single point]",–
O=C(COC(=O)C1CCN(c2ccc(C(F)(F)F)cn2)CC1)Nc1cc(F)ccc1F,"29.1 µM [rising, single point]",–
Cc1nn(-c2ccc(F)cc2)c(Cl)c1/C=C(\CC(=O)O)c1nc2ccccc2s1,"20 µM [rising, single point]",–
COc1ccc(Cc2nc3ccc(C(=O)N4CCC(N(C)C)C4)cc3o2)cc1 (stereo unspecified),"35.5 µM [rising, single point]",–
COC1=C(OC)c2ccccc2C(C(=O)O)N/C1=C(/C)Nc1ccncc1 (stereo unspecified),"8.91 µM [falling, partial curve]",–
O=C(NC1CCCN(Cc2ccc(Cl)cc2)C1)c1ccnc(Cl)c1 (stereo unspecified),"25.1 µM [falling, single point]",–
Cc1ccc(-n2ncc3c(N(CCO)Cc4ccccc4)ncnc32)cc1,"0.282 µM [rising, full curve, poor fit]",–
CCOC(=O)c1c(/N=C/c2ccc(C)cc2O)sc2c1CCN(C)C2,"17.8 µM [rising, partial curve, poor fit]",–
COC(=O)[C@@H]1Cc2c([nH]c3ccccc23)C(C)(C)N1C(=O)CCl,"7.08 µM [falling, partial curve, poor fit]",–
CCCn1c(SCC(=O)Nc2ccccc2Cl)n[nH]c1=O,"0.891 µM [rising, full curve, poor fit]",–
CCOC(=O)c1csc(NC(=O)c2cc3ccccc3o2)n1,"12.6 µM [falling, partial curve]",–
O=C(N/N=C1\CCCc2ccccc21)c1ccccc1Cl,"35.5 µM [falling, single point]",–
CCCOc1cccc(C(=O)Nc2nnn(CCC)n2)c1,"7.08 µM [falling, partial curve]",–
O=C(CN1CCCCCC1)Nc1ccc(Cl)cn1,"35.5 µM [falling, single point]",–
CCCCCc1nnc(N)s1,"29.1 µM [rising, single point]",–
